{
  "source": "patent US7750006B2",
  "about": "“Phthalazinone derivatives” (Kudos Pharmaceuticals Limited, priority 2000, dated 2010)",
  "system": "HeLa cells",
  "test": "Dose Enhancing Factor: cell growth inhibition with bleomycin, SRB assay",
  "type": "cell-based",
  "conditions": "test compound 25 μM, bleomycin 0.5 μg/ml",
  "method": "The Dose Enhancing Factor (DEF) is a ratio of the enhancement of cell growth inhibition elicited by the test compound in the presence of bleomycin compared to bleomycin alone. […] Bleomycin was used at a concentration of 0.5 μg/ml. The DEF was calculated from the formula:\n[formula] where GrowthTC is cell growth in presence of the test compound; GrowthControl is cell growth of control cells; Growthbleo is cell growth in presence of bleomycin; and Growth(bleo+TC) is cell growth in presence of bleomycin and the test compound.\n2,000 HeLa cells were seeded into each well of a flat-bottomed 96-well microtiter plate in a volume of 100 μl and incubated for 6 hours at 37° C. […] Cells were allowed to grow for a further 1 hour before the addition of bleomycin to either untreated cells or test compound treated cells. Cells untreated with either bleomycin or test compound were used as a control. Cells treated with test compound alone were used to assess the growth inhibition by the test compound.\nCells were left for a further 16 hours before replacing the media and allowing the cells to grow for a further 72 hours at 37° C. The media was then removed and the cells fixed with 100 μl of ice cold 10% (w/v) trichloroacetic acid. The plates were incubated at 4° C. for 20 minutes and then washed four times with water. […]",
  "note": "Some of these results come from one statement about several compounds together.",
  "data": [
    {"smiles": "CCC(C(=O)Nc1cccc(Cc2n[nH]c(=O)c3ccccc23)c1)c1ccccc1", "note": "(stereo not shown) [Compound 233]", "values": [
      {"measurement": "DEF (Dose Enhancing Factor)", "value": "greater than 1"}
    ]}
  ]
}
